According to patent US7645882B2, “Inhibitor of protein modification products formation” (priority 2003, dated 2010):

Assay: Reactivity with vitamin B6
Conditions: after 20 hours, PBS, 37° C.; pyridoxal-5′-phosphate 50 μM, compound 0.5 μM

Compound | pyridoxal-5′-phosphate residual rate [%]
N=C(N)NN [aminoguanidine, reference compound] | 0.2
Cc1ncc2c(c1O)C(c1c(C)nn(-c3ccccc3)c1O)OC2 (centres unmarked) [compound 68, 1-(5-hydroxy-3-methyl-1-phenyl-1H-pyrazol-4-yl)-6-methyl-1,3-dihydro-furo[3,4-c]pyridin-7-ol] | 97
